{"source": "PubChem BioAssay AID1508600", "about": "(Functional Genomics Laboratory (NCATS/FGL), 2020)", "note": "The whole screen tested about 53,000 sequences, of which about 3,700 (7%) were called active.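 The calls were made as follows: active = gene knockdowns whose robust z-score for IL-1 alpha signal is at least 2 or at most -2, so actives lie on both sides; inactive = the rest.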 The list shows a part of the results."}
{"assay": "Components of the Cytosolic LPS Sensing Pathway: Gene Identification via Genome-wide siRNA Screen;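 also: robust z of the log signal after scaling to non-targeting control siRNA wells of the plate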", "settings": "RAW264.7 macrophages, IL-1a HTRF, actives lie on both sides, screened at 100 nM (by protocol), cells primed 5 h with Pam3CSK4 first", "outline": "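Mouse macrophage line RAW264.7 is transfected with siRNA (100 nM final), grown 48h, primed with TLR ligand Pam3CSK4 5 h and given intracellular LipidA 24 h. IL-1a in supernatant is read by HTRF and viability by luminescence.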"}
{"sequence": "GCGAUACAACUCUUAUGACTT against Dennd5b", "z-score": "inactive: -0.521"}
{"sequence": "GGUAGAACAACAGAACAAUTT against Myo5b", "z-score": "active: 2.9"}
{"sequence": "CCUAAAGAGGUGGUUGAACTT against Zfp688", "z-score": "inactive: -1"}
{"sequence": "GGCAUGACUUCAUCGAGACTT against Tmem189", "z-score": "inactive: 0.124"}
{"sequence": "CCCUGUUGCUGACAUUUAUTT against Wasf3", "z-score": "inactive: 0.167"}
{"sequence": "GGUCUAUCGCUUGCUUUUUTT against Abca2", "z-score": "inactive: 1.67"}
{"sequence": "GGUUGACACUCUGAGGGAATT against Pld2", "z-score": "inactive: -0.175"}
{"sequence": "GGAACGUAAACUAAGCCCGTT against Foxb1", "z-score": "inactive: 0.458"}
{"sequence": "GCAGUUAUUCUGAGAGUGATT against Olfr1385", "z-score": "inactive: 0.08"}
{"sequence": "GGGUUAGAGUAAGGUAUUATT against Tsn", "z-score": "inactive: -0.879"}
{"sequence": "CGGCUGCAUUUCAACAAGGTT against Snrpc", "z-score": "inactive: -1.92"}
{"sequence": "CGGAUUCGUCUGUUUUCUGTT against Ddi2", "z-score": "inactive: 1.97"}
{"sequence": "GGCUUUUGAAGUAAAUACATT against Pcdhb14", "z-score": "active: 2.65"}
{"sequence": "CCCACCUAGCAUACGACUATT against Kazald1", "z-score": "inactive: 0.299"}
{"sequence": "AUGGAGUCCUACAUUCUAGTT against Ccdc92b", "z-score": "inactive: -0.998"}
{"sequence": "CCCUAACUGUAUGGACCAUTT against Coa3", "z-score": "inactive: 1.15"}
{"sequence": "CCGCUAGAUUUCUCUUACCTT against Abhd14b", "z-score": "inactive: 0.325"}
{"sequence": "GAGGAAGACACUUUUCCUGTT against Atp23", "z-score": "inactive: 0.765"}
{"sequence": "GGAUGUUGCUCCAAGUGGATT against Nmur1", "z-score": "inactive: 0.258"}
{"sequence": "GGUGAAAUCCAUUAAAGAATT against Fth1", "z-score": "active: -2.06"}
{"sequence": "GCAACUUUAAUGACAGCGUTT against Moxd1", "z-score": "inactive: -0.211"}
{"sequence": "GGUGUUAUGCCUAUGUAUGTT against Mnx1", "z-score": "inactive: -0.498"}
{"sequence": "GGCAUCUUUGGAGACUGGUTT against Sycn", "z-score": "inactive: 0.598"}
{"sequence": "GGUGACAUUUGAAAAUGUCTT against Slc25a12", "z-score": "inactive: 0.411"}
{"sequence": "CCGAGUGGUGAGUCUUCUUTT against Olfr629", "z-score": "inactive: -1.55"}
{"sequence": "GCUGGGACCUCAGAAAGUUTT against Sun3", "z-score": "inactive: 0.253"}
{"sequence": "GGCCAAAAAUGAAAGAAAUTT against Myo15", "z-score": "inactive: -0.251"}
{"sequence": "CCUCUCCUCUAUUCAACACTT against Olfr472", "z-score": "inactive: 0.934"}
{"sequence": "GCAGAGCGGUAAUCUAUCUTT against 5031410I06Rik", "z-score": "inactive: -1.31"}
{"sequence": "GGGACUUGUCCAAUAAAGUTT against Aimp2", "z-score": "inactive: -0.375"}
